At least one compound was matched to its structure with a doubt left.
System: heroin-induced lethality
Test: Protection of mice against acute toxicity (lethality) of a lethal dose of heroin
Type: in vivo
Conditions: 10 or 5 mg/kg (IV or IP) before heroin 25 mg/kg IV
Description: All mice were allowed ad libitum access to food and water and maintained on a 12 h light/12 h dark cycle, with the lights on at 8:00 a.m. at a room temperature of 21-22° C. Experiments were performed in a same colony room in accordance with the Guide for the Care and Use of Laboratory Animals as adopted and promulgated by the National Institutes of Health. The animal protocol was approved by the IACUC (Institutional Animal Care and Use Committee) at the University of Kentucky.
Heroin-induced acute toxicity was characterized in this study by the occurrence of death. […] Following the heroin administration, mice were immediately placed in containers for observation. The presence or absence of death was recorded for 6 hours following heroin administration.
Heroin-induced acute toxicity was characterized by the lethality (occurrence of death). For the protection experiments, a single dose of ethopropazine was administrated (IV) prior to administration of a lethal dose (LD100) of heroin (e.g. 25 mg/kg, IV). At 10 min after IV administration of ethopropazine or saline (negative control), the mice were given a lethal dose (LD100) of heroin. The protection experiments were performed under various dose conditions (n=6 for each scenario).

SMILES: COc1ccc2c3c1O[C@H]1C[C@@H](O)C=C[C@@]31CCN(C)C2 [Galantamine]
- protection against heroin-induced lethality: did not protect any mouse
